Earlier results in patent US5747503A, “Selective inhibitors of biogenic amine transporters” (priority 1996, dated 1998).

Biological target: PCP site 2
Conditions: Rothman et al. (1992); cited from earlier work

Q: With `CN1[C@@H]2CC[C@H]1C[C@@H](OC(c1ccccc1)c1ccccc1)C2` [benztropine] as the compound, how does the Ki read?
A: Its Ki is 183 nM.
